In US11642345B2, “Replication stress pathway agent compositions and methods for treating cancer” (Boundless Bio, Inc., priority 2020, dated 2023):

System: HeLa cells
Experiment: HeLa cell confluence by high-content microscopy over three weeks, with or without 100 nM methotrexate
Type: cell-based
Conditions: without methotrexate, 10-300 nM tested
Method: Cell confluence was measured via high-content microscopy over the time course.
HeLa cells were treated with a WEE1 inhibitor, 0.01-0.3 μM adavosertib alone, with 1 nM-100 nM PD0166285, with 100 nM methotrexate alone, or with a combination of 0.01-0.3 μM adavosertib and 100 nM methotrexate or a combination of 1 nM-100 nM PD0166285 and 100 nM methotrexate over the course of three weeks. Cell confluence was measured via high-content microscopy over the time course.
HeLa cells were treated with a PARG inhibitor, 3-100 μM PD00017273 with (FIG. 35 top panel) or without (FIG. 35 bottom panel) 100 nM methotrexate over the course of 3 weeks. Cell confluence was measured via high-content microscopy over the time course.
Cell confluence was measured via high-content microscopy over the time course. […] However.

In the case of `C[C@@H]1COCCN1c1cc(-c2ccnn2C)c2ccnc(-c3ccn[nH]3)c2n1` [BAY1895344], the “toxicity on its own, concentration” value is reported as “above 10 nM”.
